System: MCF-7/Adr cells
Assay: Functional measure of hydrolysis: pre-hydrolysis in RPMI medium or human serum, then growth of MCF-7/Adr cells
Assay type: cell-based
Settings: start 1000 nM equivalents, RPMI 1640, 37° C.
Procedure: Hydrolysis of Doxaz or DoxF in RPMI medium was performed by dissociating the cells with trypsin/EDTA, counting and then suspending the cells in growth media to a concentration of 5×10^3 cells/mL. This cell suspension was dispensed in 200 μL aliquots (1000 cells/well) into the inside wells of 96-well tissue culture plates. Plates were then incubated for 24 h at 37° C. in a humidified atmosphere of 5% CO2, and 95% air. The medium was replaced with 180 μL of growth medium prior to addition of the drug. RPMI media (no serum added) was divided into 5 mL aliquots in conical vials and heated to 37° C. in a constant temperature bath. Doxaz and DoxF were dissolved in DMSO at a concentration of 1 mM equivalents. The concentration was then corrected by measuring the solution absorbance at 480 nm (ε=11,500 M^−1 cm^−1). Drug solution (50 μl) was added to an individual conical vial and the drug was allowed to hydrolyze (at 10 μM) for 0, 10, 20, 30, 45, 60, 75 or 90 min. Experiments were performed such that all hydrolysis times would end simultaneously. […] The cells were then incubated for 5 days, and the extent of colony formation was determined using a crystal violet staining assay measuring optical density at 588 and 770 nm. […]

Compound | Time for hydrolysis at which 50% growth inhibition remains
COc1cccc2c1C(=O)c1c(O)c3c(c(O)c1C2=O)C[C@@](O)(C(=O)CO)C[C@@H]3OC1CC2C(OCN2CN2COC3C(C)OC(O[C@H]4C[C@](O)(C(=O)CO)Cc5c(O)c6c(c(O)c54)C(=O)c4c(OC)cccc4C6=O)CC32)C(C)O1 (some centres unmarked) [DoxF, Doxoform, reference compound] | about 13 min
COc1cccc2c1C(=O)c1c(O)c3c(c(O)c1C2=O)C[C@@](O)(C(=O)CO)C[C@@H]3O[C@H]1C[C@@H]2NCO[C@@H]2[C@H](C)O1 [Doxaz, Doxazolidine] | about 8 min
